Laboratory results as given in publication PMC9499646, “Histidine-Rich Glycoprotein Suppresses the S100A8/A9-Mediated Organotropic Metastasis of Melanoma Cells” (International Journal of Molecular Sciences, 2022).
Results are given in words; binding and its absence hold for the method and conditions named. Binding seen in cells or lysates may run through a third protein. Some entries that bind do so weakly or less than the wild type. Where a sequence is shown, tags or fusion partners need not be part of it.

Sequences of proteins named here, by UniProt entry; tags and fusion partners are left off.
UniProt P26447: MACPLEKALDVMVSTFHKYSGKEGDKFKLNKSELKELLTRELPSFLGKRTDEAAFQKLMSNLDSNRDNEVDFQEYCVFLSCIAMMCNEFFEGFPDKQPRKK

T1: myc-tagged modified (membrane-anchored) HRG (UniProt P04196)
T1 sequence: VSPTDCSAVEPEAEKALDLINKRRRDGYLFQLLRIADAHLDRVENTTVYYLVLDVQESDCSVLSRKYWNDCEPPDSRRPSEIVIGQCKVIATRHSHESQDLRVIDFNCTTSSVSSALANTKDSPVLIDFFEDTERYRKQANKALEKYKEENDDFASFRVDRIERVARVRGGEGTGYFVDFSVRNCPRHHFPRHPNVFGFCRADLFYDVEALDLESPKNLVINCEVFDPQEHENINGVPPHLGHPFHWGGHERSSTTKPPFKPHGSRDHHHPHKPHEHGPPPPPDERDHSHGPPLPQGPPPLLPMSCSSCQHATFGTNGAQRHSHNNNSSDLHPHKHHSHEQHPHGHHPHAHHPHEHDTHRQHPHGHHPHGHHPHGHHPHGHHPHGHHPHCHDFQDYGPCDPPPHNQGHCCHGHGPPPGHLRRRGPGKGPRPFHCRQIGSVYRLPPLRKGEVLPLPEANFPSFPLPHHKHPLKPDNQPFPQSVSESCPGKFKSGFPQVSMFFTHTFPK

T2: GST-S100A8/A9 (preincubated mixture of GST-S100A8 and GST-S100A9) (human) (UniProt P05109+P06702)
T2 sequence 1: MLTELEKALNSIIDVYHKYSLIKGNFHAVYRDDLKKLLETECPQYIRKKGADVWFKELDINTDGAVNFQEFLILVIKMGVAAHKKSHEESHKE
T2 sequence 2: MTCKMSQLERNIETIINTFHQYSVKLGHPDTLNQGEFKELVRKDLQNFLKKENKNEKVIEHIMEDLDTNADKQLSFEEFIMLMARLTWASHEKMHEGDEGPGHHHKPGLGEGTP

T3: GST-S100A8 (human) (UniProt P05109)
T3 sequence: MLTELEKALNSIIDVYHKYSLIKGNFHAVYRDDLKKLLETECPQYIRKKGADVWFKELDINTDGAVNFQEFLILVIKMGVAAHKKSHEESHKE

T4: GST-S100A9 (human) (UniProt P06702)
T4 sequence: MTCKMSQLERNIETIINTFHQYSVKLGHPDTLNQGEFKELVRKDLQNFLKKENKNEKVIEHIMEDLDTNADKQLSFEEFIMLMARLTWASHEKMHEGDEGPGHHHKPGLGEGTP


What was measured:
[1] = molecular target: T1, myc-tagged modified (membrane-anchored) HRG; test: co-IP; HEK293T co-transfected with membrane-anchored myc-tagged HRG and HA-tagged S100 proteins; IP with anti-myc agarose, 3 h at 4 °C; blot with HA antibody
[2] = molecular target: T2, GST-S100A8/A9 (preincubated mixture of GST-S100A8 and GST-S100A9) (human); test: pull-down; 10 µg GST protein (single, or preincubated mixture of GST-S100A8 and GST-S100A9) incubated with 1 mL healthy human plasma, 30 min, room temperature; glutathione-conjugated Sepharose beads; eluted with glutathione; SDS-PAGE, CBB stain; bands identified by LC-MS/MS; only the target …
GST-S100A8 (human) = molecular target: T3, GST-S100A8 (human); test: as above
GST-S100A9 (human) = molecular target: T4, GST-S100A9 (human); test: as above

| binding [1] | binding [2] | binding (GST-S100A9 (human)) | Molecule | binding (GST-S100A8 (human)) |
| --- | --- | --- | --- | --- |
| binds | – | – | HA-tagged membrane-anchored S100A4 (from UniProt P26447 1-101) | – |
| – | binds | binds | histidine-rich glycoprotein (HRG), human plasma (protein, UniProt P04196 19-525, glycosylated (a total of about 20-KDa glycosyl chains)) VSPTDCSAVEPEAEKALDLINKRRRDGYLFQLLRIADAHLDRVENTTVYYLVLDVQESDCSVLSRKYWNDCEPPDSRRPSEIVIGQCKVIATRHSHESQDLRVIDFNCTTSSVSSALANTKDSPVLIDFFEDTERYRKQANKALEKYKEENDDFASFRVDRIERVARVRGGEGTGYFVDFSVRNCPRHHFPRHPNVFGFCRADLFYDVEALDLESPKNLVINCEVFDPQEHENINGVPPHLGHPFHWGGHERSSTTKPPFKPHGSRDHHHPHKPHEHGPPPPPDERDHSHGPPLPQGPPPLLPMSCSSCQHATFGTNGAQRHSHNNNSSDLHPHKHHSHEQHPHGHHPHAHHPHEHDTHRQHPHGHHPHGHHPHGHHPHGHHPHGHHPHCHDFQDYGPCDPPPHNQGHCCHGHGPPPGHLRRRGPGKGPRPFHCRQIGSVYRLPPLRKGEVLPLPEANFPSFPLPHHKHPLKPDNQPFPQSVSESCPGKFKSGFPQVSMFFTHTFPK | no binding (tested: 10 µg GST protein in 1 mL plasma) |
| binds | – | – | HA-tagged membrane-anchored S100A5 (protein, UniProt P33763 1-92) METPLEKALTTMVTTFHKYSGREGSKLTLSRKELKELIKKELCLGEMKESSIDDLMKSLDKNSDQEIDFKEYSVFLTMLCMAYNDFFLEDNK | – |
| binds | – | – | HA-tagged membrane-anchored S100A3 (protein, UniProt P33764 1-101) MARPLEQAVAAIVCTFQEYAGRCGDKYKLCQAELKELLQKELATWTPTEFRECDYNKFMSVLDTNKDCEVDFVEYVRSLACLCLYCHEYFKDCPSEPPCSQ | – |
| binds | – | – | HA-tagged membrane-anchored S100A9 (protein, UniProt P06702 1-114) MTCKMSQLERNIETIINTFHQYSVKLGHPDTLNQGEFKELVRKDLQNFLKKENKNEKVIEHIMEDLDTNADKQLSFEEFIMLMARLTWASHEKMHEGDEGPGHHHKPGLGEGTP | – |
